Measurements: PMC10070108
No constants are given. Whether binding was seen depends on the method and setting. Binding seen in cells or lysates may run through a third protein. Some entries that bind do so weakly or less than the wild type.

The chains behind the UniProt entries cited, without tags or fusion partners.
UniProt E9Q557: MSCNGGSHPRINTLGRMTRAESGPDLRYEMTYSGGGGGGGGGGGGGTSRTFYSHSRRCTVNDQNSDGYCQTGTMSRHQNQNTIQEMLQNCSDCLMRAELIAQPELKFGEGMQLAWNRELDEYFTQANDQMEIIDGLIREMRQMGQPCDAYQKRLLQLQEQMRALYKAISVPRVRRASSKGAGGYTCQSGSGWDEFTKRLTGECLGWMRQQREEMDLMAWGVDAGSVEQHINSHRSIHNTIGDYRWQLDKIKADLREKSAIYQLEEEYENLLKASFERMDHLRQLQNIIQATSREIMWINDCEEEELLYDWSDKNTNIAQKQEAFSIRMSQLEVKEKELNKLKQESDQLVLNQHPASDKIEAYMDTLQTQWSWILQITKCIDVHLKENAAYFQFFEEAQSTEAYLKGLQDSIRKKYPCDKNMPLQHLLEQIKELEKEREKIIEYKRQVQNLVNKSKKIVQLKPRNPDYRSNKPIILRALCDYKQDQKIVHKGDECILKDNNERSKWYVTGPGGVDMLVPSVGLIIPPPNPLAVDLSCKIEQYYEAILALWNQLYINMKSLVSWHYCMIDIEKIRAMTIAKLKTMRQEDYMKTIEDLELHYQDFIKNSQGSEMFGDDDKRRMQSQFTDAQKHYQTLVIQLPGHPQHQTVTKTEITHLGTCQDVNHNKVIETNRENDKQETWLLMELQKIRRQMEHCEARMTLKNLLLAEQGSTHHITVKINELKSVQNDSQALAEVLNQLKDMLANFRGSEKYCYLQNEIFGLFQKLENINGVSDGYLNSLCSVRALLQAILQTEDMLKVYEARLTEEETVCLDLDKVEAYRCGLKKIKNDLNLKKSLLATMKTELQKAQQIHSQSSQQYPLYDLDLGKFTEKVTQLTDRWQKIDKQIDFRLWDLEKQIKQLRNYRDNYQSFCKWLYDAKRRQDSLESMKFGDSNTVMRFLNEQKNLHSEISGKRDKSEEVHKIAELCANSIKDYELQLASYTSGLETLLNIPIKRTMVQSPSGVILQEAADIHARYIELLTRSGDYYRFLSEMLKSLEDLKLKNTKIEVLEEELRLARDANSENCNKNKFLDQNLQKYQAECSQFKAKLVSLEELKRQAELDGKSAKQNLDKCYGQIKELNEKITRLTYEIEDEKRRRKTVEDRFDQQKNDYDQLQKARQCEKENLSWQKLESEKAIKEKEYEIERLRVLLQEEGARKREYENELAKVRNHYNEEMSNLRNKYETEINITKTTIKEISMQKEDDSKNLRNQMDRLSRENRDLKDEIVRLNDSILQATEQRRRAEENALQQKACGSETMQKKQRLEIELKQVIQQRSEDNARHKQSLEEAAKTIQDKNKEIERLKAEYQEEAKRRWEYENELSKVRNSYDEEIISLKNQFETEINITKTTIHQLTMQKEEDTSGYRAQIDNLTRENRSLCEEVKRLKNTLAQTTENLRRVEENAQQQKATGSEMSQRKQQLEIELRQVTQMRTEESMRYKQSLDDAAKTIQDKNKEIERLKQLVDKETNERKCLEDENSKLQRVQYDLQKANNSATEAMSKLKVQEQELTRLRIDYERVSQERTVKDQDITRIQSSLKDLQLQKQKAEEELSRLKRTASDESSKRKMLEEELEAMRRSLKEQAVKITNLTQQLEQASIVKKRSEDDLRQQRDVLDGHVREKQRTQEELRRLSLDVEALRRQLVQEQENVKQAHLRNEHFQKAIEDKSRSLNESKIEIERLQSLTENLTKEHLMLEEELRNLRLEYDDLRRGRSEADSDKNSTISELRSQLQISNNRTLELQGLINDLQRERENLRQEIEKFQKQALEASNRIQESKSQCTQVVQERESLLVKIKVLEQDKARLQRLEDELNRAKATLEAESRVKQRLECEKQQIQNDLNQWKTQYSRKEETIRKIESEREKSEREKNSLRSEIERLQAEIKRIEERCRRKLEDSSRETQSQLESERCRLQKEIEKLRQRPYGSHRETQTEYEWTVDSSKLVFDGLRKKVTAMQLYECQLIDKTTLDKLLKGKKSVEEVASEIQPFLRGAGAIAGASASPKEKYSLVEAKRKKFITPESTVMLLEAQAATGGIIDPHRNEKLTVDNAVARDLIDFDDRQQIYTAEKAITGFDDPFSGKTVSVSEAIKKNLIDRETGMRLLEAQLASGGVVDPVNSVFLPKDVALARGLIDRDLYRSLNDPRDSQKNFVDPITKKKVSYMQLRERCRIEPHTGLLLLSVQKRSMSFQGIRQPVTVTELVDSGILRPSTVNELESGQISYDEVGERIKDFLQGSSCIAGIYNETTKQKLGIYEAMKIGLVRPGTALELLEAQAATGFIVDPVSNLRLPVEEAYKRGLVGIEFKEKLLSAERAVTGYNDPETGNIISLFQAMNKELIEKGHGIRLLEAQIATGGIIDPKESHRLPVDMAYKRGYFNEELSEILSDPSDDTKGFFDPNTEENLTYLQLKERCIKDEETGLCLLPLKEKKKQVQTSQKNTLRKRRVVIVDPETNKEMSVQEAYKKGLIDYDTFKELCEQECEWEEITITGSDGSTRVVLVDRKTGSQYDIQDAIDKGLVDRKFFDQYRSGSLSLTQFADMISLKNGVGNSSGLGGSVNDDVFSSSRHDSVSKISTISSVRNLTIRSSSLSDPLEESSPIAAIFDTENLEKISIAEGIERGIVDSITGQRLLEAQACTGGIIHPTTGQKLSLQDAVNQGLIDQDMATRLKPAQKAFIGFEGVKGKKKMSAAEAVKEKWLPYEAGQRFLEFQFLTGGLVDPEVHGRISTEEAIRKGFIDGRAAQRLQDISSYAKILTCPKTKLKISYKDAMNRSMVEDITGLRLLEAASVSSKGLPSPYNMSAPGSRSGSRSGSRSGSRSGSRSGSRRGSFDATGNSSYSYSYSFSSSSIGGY

Legend:
[1] = molecular target: T1, desmoglein 2 (mouse (endogenous in HL-1)) (UniProt O55111); assay: co-IP; DSG2 immunoprecipitated from HL-1 lysates (RIPA lysis buffer); 1 ug antibody to 1.5 mg lysate overnight at 4°C, Protein G Dynabeads, washes incl. 2 M urea buffer; immunoblots for EGFR, PG, DP, PKP2; cells with or without erlotinib (complex not altered)
T1 sequence: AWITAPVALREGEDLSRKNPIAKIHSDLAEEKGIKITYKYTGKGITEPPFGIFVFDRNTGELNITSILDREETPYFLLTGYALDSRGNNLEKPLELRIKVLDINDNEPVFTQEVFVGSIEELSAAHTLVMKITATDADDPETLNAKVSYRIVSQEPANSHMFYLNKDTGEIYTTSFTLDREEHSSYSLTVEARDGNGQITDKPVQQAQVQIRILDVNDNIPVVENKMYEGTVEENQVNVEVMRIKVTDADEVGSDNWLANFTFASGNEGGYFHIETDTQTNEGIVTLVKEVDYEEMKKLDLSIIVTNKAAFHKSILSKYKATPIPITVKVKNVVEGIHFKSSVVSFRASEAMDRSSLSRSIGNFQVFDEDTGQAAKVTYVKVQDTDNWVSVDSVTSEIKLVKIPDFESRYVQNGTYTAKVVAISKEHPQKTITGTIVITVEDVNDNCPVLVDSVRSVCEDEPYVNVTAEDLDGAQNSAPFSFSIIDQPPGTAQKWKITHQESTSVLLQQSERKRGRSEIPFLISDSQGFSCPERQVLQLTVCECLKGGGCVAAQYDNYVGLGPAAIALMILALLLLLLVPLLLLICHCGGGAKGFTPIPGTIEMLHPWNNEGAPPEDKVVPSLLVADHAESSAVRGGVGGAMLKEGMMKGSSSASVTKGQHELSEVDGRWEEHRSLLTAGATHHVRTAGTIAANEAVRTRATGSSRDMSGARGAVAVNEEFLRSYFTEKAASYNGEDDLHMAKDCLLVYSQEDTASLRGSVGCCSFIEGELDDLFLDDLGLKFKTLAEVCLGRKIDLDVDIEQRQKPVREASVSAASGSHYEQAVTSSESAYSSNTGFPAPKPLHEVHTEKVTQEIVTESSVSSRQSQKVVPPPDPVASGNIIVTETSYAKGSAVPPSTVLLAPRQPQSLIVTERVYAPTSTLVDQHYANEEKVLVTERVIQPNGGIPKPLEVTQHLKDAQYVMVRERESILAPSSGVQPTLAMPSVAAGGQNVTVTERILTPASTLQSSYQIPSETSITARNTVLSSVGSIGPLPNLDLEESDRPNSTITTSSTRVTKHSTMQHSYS

[2] = molecular target: desmoplakin (mouse (endogenous in HL-1)) (UniProt E9Q557); assay: co-IP; DP immunoprecipitated from HL-1 lysates (RIPA lysis buffer); 1 ug antibody to 1.5 mg lysate overnight at 4°C, Protein G Dynabeads, washes incl. 2 M urea buffer; immunoblots for EGFR, DSG2, PKP2, PG; cells treated with vehicle, erlotinib or PP2 (no significant changes)

Q: How did the binding [1] turn out when “epidermal growth factor receptor (from UniProt Q01279 25-1210)” was run?
A: binds

Q: What about the binding [2] of the same substance?
A: binds
